Values quoted from earlier work in US20220412958A1, “METHOD FOR EVALUATING SAFETY OF SUBSTANCE IN VITRO USING HUMAN IMMORTALIZED MYELOID CELLS” (MiCAN Technologies Inc., priority 2019, published 2022).
Some results were stated once for a whole list of compounds, not compound by compound. At least one structure is not confirmed: it was looked up by name or label, or the drawing left a doubt.

Tested on: THP-1 cells
Conditions: quoted from ATLA 38, 275-284, 2010; cited from earlier work

| Structure (SMILES) | expression level of CD86 and/or CD54 in h-CLAT |
| --- | --- |
| C=C(C)[C@H]1CC=C(C)CC1 [P5, R(+) Limonene] | increase in the expression level |
| O=[N+]([O-])c1ccc(Cl)c([N+](=O)[O-])c1 [P1, 2,4-Dinitrochlorobenzene] | increase in the expression level |
